# Data: PubChem BioAssay AID540276 (National Center for Advancing Translational Sciences (NCATS), 2011)
# In all, about 300,000 compounds went through this assay and about 5,400 (1.8%) were called active. Inconclusive means that the source gave no clear call. Such entries were picked first, then a sample of the others. Calls follow the shape of the full dose curve; tested in HEK293 cells. Potencies of inconclusive entries are doubtful fits and often do not repeat. More than one record can exist for a structure, and the calls need not agree.
# Test: qHTS for inhibitors of binding or entry into cells for Marburg Virus
# Details: Marburg virus pseudotyped entry inhibition, cell reporter; series mostly up to 37.8 µM
# Potency is read from the fitted curve at half-maximal effect.
row,SMILES,Potency
1,CCOC(=O)c1ccc(N2C(=O)c3n[nH]c(-c4ccco4)c3C2c2cccc(OC)c2)cc1 (stereo not drawn),"inconclusive: 35.5 µM [inhibitor, single point]"
2,O=C(NC(=S)NC(c1ccccc1)c1ccncc1)c1ccccc1 (stereo not drawn),active: 6.51 µM
3,CC(C)c1ccc(C2NC(=O)c3n[nH]c(-c4cccs4)c32)cc1 (stereo not drawn),inactive
4,O=C(Cc1ccccc1)NNC(=S)NC(=O)c1cccs1,"inconclusive: 7.94 µM [inhibitor, partial curve, poor fit]"
5,Cc1ccc2[nH]c(=O)c(CN(Cc3ccc4c(c3)OCO4)Cc3nnnn3C3CCCC3)cc2c1,"inconclusive: 11.2 µM [inhibitor, single point]"
6,CCOC(=O)Cc1csc(NC(=O)c2ccc(S(=O)(=O)N3CCOCC3)cc2)n1,"inconclusive: 3.98 µM [inhibitor, full curve]"
7,COc1ccc(-n2nnnc2C2CCN(S(=O)(=O)c3ccc(NC(C)=O)cc3)CC2)cc1,inactive
8,CCN1CCN(c2ccc(S(=O)(=O)N3CCOCC3)cc2NC(=O)/C=C/c2ccc(OC)cc2OC)CC1,"inconclusive: 11.2 µM [inhibitor, partial curve, poor fit]"
9,COc1ccc(/C=C2/Sc3ccc(C(=O)N4CCc5ccccc5C4)cc3NC2=O)cc1,"inconclusive: 0.447 µM [activator, full curve, poor fit]"
10,CCn1c(=N)c(C(=O)NCc2ccccc2)cc2c(=O)n3cccc(C)c3nc21,"inconclusive: 1.78 µM [inhibitor, partial curve, poor fit]"
11,COc1cc(C(=O)NC2CC3CCCC(C2)N3CC(=O)Nc2ccccc2)cc(OC)c1OC (stereo not drawn),"inconclusive: 29.1 µM [inhibitor, partial curve, poor fit]"
12,CCN(C(=O)COC(=O)/C(C#N)=C/c1cc(C)n(CCOC)c1C)c1c(N)n(Cc2ccccc2)c(=O)[nH]c1=O,inactive
13,Cc1cc(NC(=O)c2ccc(COc3ccccc3Cl)o2)no1,"inconclusive: 7.08 µM [inhibitor, partial curve, poor fit]"
14,O/N=C/c1ccc(OCc2ccccc2F)c(Cl)c1,"inconclusive: 2.82 µM [activator, partial curve, poor fit]"
15,O=C(Nc1ccccc1)c1c(O)c2c(n(Cc3ccco3)c1=O)CCCC2,inactive
16,COc1ccc(N=C2SC(CC(=O)Nc3ccccc3)C(=O)N2Cc2ccccn2)cc1 (stereo not drawn),"inconclusive: 8.91 µM [inhibitor, partial curve, poor fit]"
17,CC(C)(C)N1NC2(CCCCC2)NC1=S,"inconclusive: 35.5 µM [activator, single point]"
18,O=C1CCCC2=C1C(c1cccc(O)c1)c1c(ccc3ncccc13)N2 (stereo not drawn),inactive
19,O=C(COC(=O)c1ccc(C(F)(F)F)cc1)Nc1cccc(S(=O)(=O)NC2=NCCCCC2)c1,"inconclusive: 35.5 µM [inhibitor, single point]"
20,CC1(C)CC(=O)C/C(=N/NC(=O)c2ccc(-c3ccccc3)cc2)C1,"inconclusive: 7.94 µM [inhibitor, partial curve, poor fit]"
21,C(=C\c1ccccc1)/CSc1nnc(-c2ccccn2)n1Cc1ccco1,"inconclusive: 6.31 µM [inhibitor, single point]"
22,C=CCN1CC[C@]23c4c5ccc(O)c4O[C@H]2/C(=N/NC(=O)c2ccccc2)CC[C@@]3(O)[C@H]1C5,active: 0.0891 µM

# Reprinted at random: two compounds from above, in no set order.
row,SMILES,Potency
4,O=C(Cc1ccccc1)NNC(=S)NC(=O)c1cccs1,"inconclusive: 7.94 µM [inhibitor, partial curve, poor fit]"
21,C(=C\c1ccccc1)/CSc1nnc(-c2ccccn2)n1Cc1ccco1,"inconclusive: 6.31 µM [inhibitor, single point]"

# Later entries:

row,SMILES,Potency
1,Nc1nc(-c2ccccc2)cc(N2CCCCC2)n1,"inconclusive: 35.5 µM [inhibitor, single point]"
2,O=C(Nc1cccc(C(F)(F)F)c1)C(Sc1n[nH]c(=O)[nH]c1=O)c1ccccc1 (stereo not drawn),inactive
3,CCCCCCCCCCCCCCCC[n+]1cccc(C(=O)N(CC)CC)c1,active: 7.08 µM
4,Cc1ccc(CN(C)C(=O)c2cccc(S(=O)(=O)N3CCCC3)c2)o1,inactive
5,O=C(OCCSCCOC(=O)C1CC=CCC1)C1CC=CCC1 (stereo not drawn),"inconclusive: 1 µM [inhibitor, single point]"
6,Cc1ccccc1Oc1nnc(-c2cccs2)c2ccccc12,"inconclusive: 22.4 µM [inhibitor, partial curve, poor fit]"
7,COc1ccc(NC(=O)CC2C(=O)N(c3ccc(OC)cc3)C(=O)N2CCC2=CCCCC2)cc1 (stereo not drawn),inactive
8,Cc1ccc(C)c(Nc2cc(C(=O)NC3CCCC3)c3ccccc3n2)c1,inactive
9,Cc1ccc(C(=O)N2C(=S)C(c3ccc(F)cc3)=NC23CCN(C)CC3)cc1,"inconclusive: 22.4 µM [inhibitor, single point]"
10,COc1ccc(CC(C)N2CCN(c3ccccc3)CC2)cc1OC (stereo not drawn),"inconclusive: 29.1 µM [inhibitor, single point]"
11,COCCCNC(=O)c1sc2ncnc(N3CCc4ccccc4C3)c2c1C,active: 8.2 µM
12,COc1cc(-c2noc(-c3ccc(NCC4CCCO4)c([N+](=O)[O-])c3)n2)cc(OC)c1OC (stereo not drawn),inactive
13,CCCOCCc1nnc(N)s1,inactive
14,O=C(Nc1ccc2oc(=O)ccc2c1)c1ccc(-c2ccc(Cl)cc2)o1,"inconclusive: 3.55 µM [activator, single point]"
15,CN(CC(=O)NCc1ccccn1)S(=O)(=O)c1ccc(F)cc1,inactive
16,Cc1cc(C(=O)Nc2ccc(S(=O)(=O)Nc3onc(C)c3C)cc2)cs1,inactive
17,Cc1cc(C)cc(NC(=O)CC23CC4CC(C2)CC(n2nnc(C)n2)(C4)C3)c1,"inconclusive: 35.5 µM [inhibitor, single point]"
18,N#Cc1nc(-c2ccco2)oc1NCc1ccccc1Cl,inactive
19,OC(COCc1cccs1)CN1CCN(c2cccc(C(F)(F)F)c2)CC1 (stereo not drawn),"inconclusive: 2.51 µM [inhibitor, partial curve, poor fit]"
20,CC(=O)Nc1ccc(S(=O)(=O)Nc2c(C)nn(-c3ccccc3)c2C)cc1,"inconclusive: 0.0058 µM [inhibitor, full curve, poor fit]"
21,O=C(O)COc1ccc(/C=N/n2cnc3scc(-c4cccs4)c3c2=O)cc1,"inconclusive: 0.562 µM [activator, full curve, poor fit]"
